# From PubChem BioAssay AID2685 (National Center for Advancing Translational Sciences (NCATS), 2010)
# Hit rate of the full screen: of about 320,000 compounds, about 2,100 (0.66%) were called active. The inconclusive results got no clear call from the source; some entries with a clear call stand among them for comparison. Calls follow the shape of the dose curve; as a rule, active = well fitted inhibition curve with a large enough effect in the signal ratio, with a control signal flat (not every such curve was filed as active); inconclusive = small, poorly fitted or top-dose-only effect, or effect the other way, or a change in a side signal; inactive = flat fitted curve, though single readings scatter; the % refers to the signal ratio. Potencies beside an inconclusive call are fits to weak or partial responses and may not hold up.
# Test: qHTS Assay for Lipid Storage Modulators in Drosophila S3 Cells
# Conditions: BODIPY lipid droplet fluorescence, 18-24 h, cells fed with added oleic acid; lipid storage change, negative = inhibition: at 46.1 µM (top of the series) unless noted
# Method in brief: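 Drosophila S3 cells loaded with oleic acid (400 uM, as added) and compounds at several concentrations; lipid droplets imaged by 488-nm laser-scanning cytometry, 500–530 nm intensity and object ratio to cell channel. Percent activity normalized to 20 uM Triacsin C.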
# % is scaled to controls: 0 for no effect and ±100 for the full control effect; potency is read from the fitted curve at half-maximal effect.
Compound,"lipid storage change, negative = inhibition",Potency,outcome
CC(C)C[C@H](NC(=O)C1CC(=O)N(c2ccc3c(c2)OCCO3)C1)C(=O)N1CCCCC1 (stereo not given in full),inconclusive: 13.1%,,
COc1ccc(NC(=S)N2CCN(CCN3C(=O)c4cccc5cccc(c45)C3=O)CC2)cc1,inconclusive: 21.1%,,
CC1CCCN(C(=O)NC2CC(=O)N(c3ccc4c(c3)OCCO4)C2)C1 (stereo not given),inconclusive: -35.8%,,
CC(C)Oc1cccc(C(=O)C2CCCN(Cc3cnc(N4CCCC4)s3)C2)c1 (stereo not given),inconclusive: -8.92%,,
O=C(Nc1cccc(-n2cnnn2)c1)c1ccncc1,,"inconclusive: 29.1 µM [activator, single point]",
CC1CC(=O)c2cnc(Nc3cccc(C(F)(F)F)c3)nc2C1 (stereo not given),inconclusive: 25.8%,,
Cc1ccc(CN2CC(C(=O)NCCCSc3ccccc3)CC2=O)cc1 (stereo not given),inconclusive: -13.7%,,
O=C(CCn1ccnc1)Nc1cc(Cl)ccc1O,inconclusive: 9.31%,,
COc1ccc(CNC(=O)CN(C(=O)c2csnn2)c2cccc(F)c2)cc1,,"inconclusive: 20.6 µM [activator, single point]",
O=C(CSc1nc2ccccc2c(=O)n1-c1ccc(F)cc1F)c1c[nH]c2ccccc12,inconclusive: 32.6% [activator],,
Cc1cc(C)nc(NS(=O)(=O)c2ccc(N3C(=O)C4CC=C(Cl)CC4C3=O)cc2)n1 (stereo not given),inconclusive: -22.2%,,
COCCN(C(=O)COC(=O)/C=C/c1ccc(C(F)(F)F)cc1)c1c(N)n(Cc2ccccc2)c(=O)[nH]c1=O,inconclusive,,
CCCn1nnnc1NC(=O)c1ccc2ccccc2c1,,"inconclusive: 1.84 µM [activator, partial curve]",
CCC(=O)N(C1=C(NC(C)C)C(=O)c2ccccc2C1=O)C(C)C,,"inconclusive: 16.4 µM [cytotoxic, partial curve]",
CNC(=O)NC(=O)CSc1ccc(NC(C)=O)cc1,inconclusive: 0.308%,,
CC(O)CNc1nc2ccccc2n1CC(=O)NCC(F)(F)F (stereo not given),inconclusive: 36.5%,,
O=C(NC1CCCc2ccccc21)c1ccc([N+](=O)[O-])cc1 (stereo not given),,"inconclusive: 2.91 µM [activator, partial curve]",
COc1ccc(C)cc1NC(=O)CCS(=O)(=O)c1cccc2nonc12,,"inconclusive: 29.1 µM [activator, single point]",
c1ccc2c(c1)oc1c(N3CCOCC3)ncnc12,,"inconclusive: 29.1 µM [activator, single point]",
CCOc1cccc2sc(N(CCCN(C)C)C(=O)Cc3ccccc3)nc12,inconclusive: 23%,,
COc1ccc(N(C)S(=O)(=O)c2ccc(Cl)c(C(=O)NCC(C)(C)N3CCOCC3)c2)cc1,,"inconclusive: 20.6 µM [falling, single point]",
CC(Sc1nncn1C)C(=O)Nc1ccc2ccccc2c1 (stereo not given),,"inconclusive: 0.651 µM [falling, full curve, poor fit]",
NC(=O)/C(=C\c1ccncc1)c1cccc2ccccc12,inconclusive: 11.1%,,
COC(=O)COc1ccc(S(=O)(=O)Nc2ccc3c(c2)OCO3)cc1Cl,inconclusive: -77.9%,,
COCCNC(=O)/C(C#N)=C/c1cc(Br)c(O)c(OC)c1,inconclusive: 19.2%,,
CC1=NN(c2ccccc2)C(=O)/C1=C\C=C1\N(C)c2ccccc2C1(C)C,,"inconclusive: 5.8 µM [cytotoxic, full curve]",
CCNC(=O)/C(C#N)=C/c1c(N2CCCCCC2)nc2ccccn2c1=O,inconclusive: 8.25%,,

# Already shown: an excerpt of the list.
Compound,"lipid storage change, negative = inhibition",Potency,outcome
O=C(NC1CCCc2ccccc21)c1ccc([N+](=O)[O-])cc1 (stereo not given),,"inconclusive: 2.91 µM [activator, partial curve]",
COc1ccc(C)cc1NC(=O)CCS(=O)(=O)c1cccc2nonc12,,"inconclusive: 29.1 µM [activator, single point]",

# Taken from above.
# lipid storage change, negative = inhibition, `COCCN(C(=O)COC(=O)/C=C/c1ccc(C(F)(F)F)cc1)c1c(N)n(Cc2ccccc2)c(=O)[nH]c1=O` is entered as inconclusive
# lipid storage change, negative = inhibition, `O=C(CSc1nc2ccccc2c(=O)n1-c1ccc(F)cc1F)c1c[nH]c2ccccc12` is entered as inconclusive: 32.6% [activator]

# More compounds:

Compound,"lipid storage change, negative = inhibition",Potency,outcome
O=C(NC(=O)c1cc(OCC(F)(F)F)ccc1OCC(F)(F)F)Nc1ccccc1,inconclusive: 10%,,
COc1ccc(CCNC(=O)Cc2ccccc2)cc1OC,inconclusive: -31.2%,,
Cc1ccc(-c2nn3c(C)nnc3c3ccccc23)cc1S(=O)(=O)NC(C)(C)CO,inconclusive: -29.3%,,
COC(=O)c1sccc1NC(=O)C1CC2CCC1C2 (stereo not given),inconclusive: 61.2%,,
CO/N=C/c1ccc(Sc2ccccc2N)c([N+](=O)[O-])c1,inconclusive: 4.57%,,
O=C(NC(=Nc1nc2ccccc2o1)NC(=O)c1ccccc1)c1ccccc1,inconclusive: 1.23%,,
Cc1ccccc1NC(=O)C1CCN(S(=O)(=O)c2cccc3nonc23)CC1,inconclusive: 59.3%,,
COc1ccccc1CN1CC(C(=O)NCCCc2ccc(F)cc2)CCC1=O (stereo not given),inconclusive: -27.2%,,
Cc1cccc(C)c1OCC(=O)N/N=C/c1cc2c(cc1[N+](=O)[O-])OCO2,,"inconclusive: 2.31 µM [activator, partial curve, poor fit]",
CNC(=O)OCc1cccc(COC(=O)NC)n1,inconclusive: -8.54%,,
CCCCn1c(C(C)NC(=O)CC)nc2ccccc21 (stereo not given),inconclusive: 32.9%,,
O=C(Nc1ccccc1N1CCCC1)c1ccco1,inconclusive: 9.01%,,
CC1CCCN(C(=O)C2CCN(S(=O)(=O)c3cccc4nsnc34)CC2)C1 (stereo not given),,"inconclusive: 2.31 µM [falling, full curve]",
Cc1ccc(C(C(=O)NC2CCCCC2)N(Cc2ccco2)C(=O)Cn2cnc3ccccc32)cc1 (stereo not given),inconclusive: -21.2%,,
CCOc1ccc(C(=O)Nc2ccc(N3CCN(C)CC3)cc2)cc1[N+](=O)[O-],inconclusive: 7.96%,,
Cc1ccc(-c2csc3ncn(/N=C/N(C)C)c(=O)c23)o1,,"inconclusive: 29.1 µM [activator, single point]",
CN(C)C(=O)CSc1nnc(CCCCCNC(=O)OC(C)(C)C)o1,inconclusive: 14%,,
COc1ccc(CNC(=O)CN(C(=O)CCC(=O)Nc2ccccn2)c2cc(C)ccc2C)cc1,inconclusive: 140%,,
Cc1sc2ncn(CC(=O)N3CCN(c4ccccc4F)CC3)c(=O)c2c1S(=O)(=O)N1CCOCC1,inconclusive: -14.1%,,
Cc1c(Cc2ccc3c(c2)OCO3)sc(NC(=O)c2cccc3ccccc23)c1C(N)=O,,"inconclusive: 0.517 µM [activator, full curve]",
CCCCCCOc1cccc(N)c1,inconclusive: 148%,,
CN1C(=O)N(CC(=O)Nc2ccc(C(F)(F)F)cc2)C(=O)C12CCCCC2,inconclusive,,
CN(C)S(=O)(=O)c1ccc(N2CCCC2)c(C(=O)Nc2ccccc2F)c1,inactive: 14.2%,,
COc1ccccc1C(=O)NCCNC(=O)c1ccc(C)nc1,inconclusive: 7.26%,,
Cc1ccc(S(=O)(=O)CCC(=O)Nc2ccccc2N2CCCC2)cc1,,"inconclusive: 0.0731 µM [activator, full curve, poor fit]",
CN(c1ccc(O)cc1)S(=O)(=O)c1ccc2ccccc2c1,,"inconclusive: 25.9 µM [falling, single point]",
Cc1ccc(C=Nc2ccc(N(C)C)cc2)o1,inconclusive: 30.3%,,

Compound,"lipid storage change, negative = inhibition",Potency,outcome
COc1ccc(Nc2cc(Nc3ccccc3)ncn2)cc1,inconclusive: 281%,,
O=C(c1ccncc1)N1CCN(C2CCCCC2)CC1,inactive: -5.89%,,
O=C(C1CCCN(Cc2ccc(Cl)cc2)C1)N1CCCCC1 (stereo not given),,,inactive [at 46.1 µM]
O=S(=O)(NCCN1CCCC1)c1ccc(C(F)(F)F)cc1,inconclusive: 39.9%,,
O=C(NC(=S)N1CCCCC1CO)C12CC3CC(CC(C3)C1)C2 (stereo not given),inconclusive: -43.9%,,
Cc1ccc(CSc2nnc(C)c(=O)n2N)cc1,inconclusive: 12.2%,,
CN1CCN(C(=O)c2cccc(-c3cc(O)c4ncccc4c3)c2)CC1,inconclusive: 15.4%,,
Cc1ccnc(NC(=O)c2ccc(COc3ccc(Cl)cc3)o2)c1,inconclusive: -5.77%,,
S=C(Nc1ccccc1)N1CCN(C(=S)c2ccccc2)CC1,inconclusive: 17.7%,,
O=C(NCC1COc2ccccc2O1)C1CCC(CNc2c(N3CCCCC3)c(=O)c2=O)CC1 (stereo not given),inconclusive: -6.36%,,
Fc1ccc(N/N=C(/c2ccccc2)c2ccccn2)cc1,inactive: 8.3%,,
CSC1=NC(NCCCO)c2c(sc3c2CC(C)(C)OC3)N1 (stereo not given),inactive: 21.6%,,
CCOC(=O)N1CCN(C(=O)Cn2nc(C)c3sc4ccccc4c3c2=O)CC1,inconclusive: 29.3%,,
O=C(Nn1cnnc1)c1cc(-c2cccc(Br)c2)nc2ccccc12,,"inconclusive: 4.61 µM [activator, partial curve]",
CC(C(=O)Nc1ncc2c(n1)CC(C)(C)CC2=O)N1C(=O)c2ccccc2C1=O (stereo not given),inconclusive: -6.06%,,
CSc1ncc(Cl)c(C(=O)Nc2cc(C)ccc2C)n1,inconclusive: 18.8%,,
CCC(=O)Nc1nc2ccc3sc(C)nc3c2s1,inconclusive: -80.6%,,
O=C(Nc1ccccn1)[C@@H]1CCC(=O)N1C(=O)OCc1ccccc1,inconclusive: 18%,,
COc1ccc(CN2CCN(C(=O)c3ccc(F)cc3)CC2)c(OC)c1,,"inconclusive: 0.058 µM [falling, full curve]",
CCCS(=O)(=O)N1CCCC(C(=O)NCCN(Cc2ccccc2)C(C)C)C1 (stereo not given),,"inconclusive: 4.11 µM [activator, single point]",
CCOP(=O)(c1ccccc1)C1(C#N)CCCC1 (stereo not given),inconclusive: -38.9%,,
O=C(NNC(=O)C1CCC1)c1cccc(Cl)c1,,"inconclusive: 2.59 µM [falling, full curve, poor fit]",
O=C(NC(Cc1ccccc1)C(=O)Oc1ccc2c(C(F)(F)F)cc(=O)oc2c1)OCc1ccccc1 (stereo not given),,"inconclusive: 23.1 µM [rising, partial curve]",
O=C(COC(=O)C1CSC2(c3ccc(F)cc3)CCC(=O)N12)NC(=O)NC1CCCC1 (stereo not given),inactive: -22.5%,,
O=C(COC(=O)CCCN1C(=O)c2ccccc2C1=O)Nc1ncc(Cl)cc1Cl,inconclusive: -17.3%,,
CC(=C\c1ccco1)/C=C(\C#N)C(=O)NCCc1c[nH]c2ccccc12,inconclusive: -27.3%,,
